Source: article PMC7753147, “High-throughput determination of protein affinities using unmodified peptide libraries in nanomolar scale” (iScience, 2020)
Results are given in words; binding and its absence hold for the method and conditions named. Some results given as binding are weak or reduced against the parent protein; the word gives no strength.

What was measured:
[1] = target: GlyR β WT peptide 414…428 on the μSPOT positional-scan microarray; test: peptide or protein array; μSPOT full positional scan of GlyR β 414-428 probed with native geph from tissue lysate (mouse brain lysate); only the target purified
[2] = target: GlyR β WT peptide 414…428 on the μSPOT positional-scan microarray; test: peptide or protein array; μSPOT full positional scan of GlyR β 414-428 probed with recombinant gephE or FL-geph; intensities normalized to the WT sequence; both purified

| binding [1] | binding [2] | Binder |
| --- | --- | --- |
| binds |  | native gephyrin within tissue lysate (protein, UniProt Q8BUV3 1-769) MATEGMILTNHDHQIRVGVLTVSDSCFRNLAEDRSGINLKDLVQDPSLLGGTISAYKIVPDEIEEIKETLIDWCDEKELNLILTTGGTGFAPRDVTPEATKEVIEREAPGMALAMLMGSLNVTPLGMLSRPVCGIRGKTLIINLPGSKKGSQECFQFILPALPHAIDLLRDAIVKVKEVHDELEDLPSPPPPLSPPPTTSPHKQTEDKGVQCEEEEEEKKDSGVASTEDSSSSHITAAALAAKIPDSIISRGVQVLPRDTASLSTTPSESPRAQATSRLSTASCPTPKQIRRPDESKGVASRVGSLKARLPSCSSTYSVSEVQSRCSSKENILRASHSAVDITKVARRHRMSPFPLTSMDKAFITVLEMTPVLGTEIINYRDGMGRVLAQDVYAKDNLPPFPASVKDGYAVRAADGPGDRFIIGESQAGEQPTQTVMPGQVMRVTTGAPIPCGADAVVQVEDTELIRESDDGTEELEVRILVQARPGQDIRPIGHDIKRGECVLAKGTHMGPSEIGLLATVGVTEVEVNKFPVVAVMSTGNELLNPEDDLLPGKIRDSNRSTLLATIQEHGYPTINLGIVGDNPDDLLNALNEGISRADVIITSGGVSMGEKDYLKQVLDIDLHAQIHFGRVFMKPGLPTTFATLDIDGVRKIIFALPGNPVSAVVTCNLFVVPALRKMQGILDPRPTIIKARLSCDVKLDPRPEYHRCILTWHHQEPLPWAQSTGNQMSSRLMSMRSANGLLMLPPKTEQYVELHKGEVVDVMVIGRL |
|  | binds | full-length gephyrin (FL-geph), recombinant (protein, UniProt Q03555 1-768) MATEGMILTNHDHQIRVGVLTVSDSCFRNLAEDRSGINLKDLVQDPSLLGGTISAYKIVPDEIEEIKETLIDWCDEKELNLILTTGGTGFAPRDVTPEKFPTFPFCGLQKGATKEVIEREAPGMALAMLMGSLNVTPLGMLSRPVCGIRGKTLIINLPGSKKGSQECFQFILPALPHAIDLLRDAIVKVKEVHDELEDLPSPPPPLSPPPTTSPHKQTEDKGVQCEEEEEEKKDSGVASTEDSSSSHITAAALAAKIPDSIISRGVQVLPRDTASLSTTPSESPRAQATSRLSTASCPTPKQIRRPDESKGVASRVGSLKVQSRCSSKENILRASHSAVDITKVARRHRMSPFPLTSMDKAFITVLEMTPVLGTEIINYRDGMGRVLAQDVYAKDNLPPFPASVKDGYAVRAADGPGDRFIIGESQAGEQPTQTVMPGQVMRVTTGAPIPCGADAVVQVEDTELIRESDDGTEELEVRILVQARPGQDIRPIGHDIKRGECVLAKGTHMGPSEIGLLATVGVTEVEVNKFPVVAVMSTGNELLNPEDDLLPGKIRDSNRSTLLATIQEHGYPTINLGIVGDNPDDLLNALNEGISRADVIITSGGVSMGEKDYLKQVLDIDLHAQIHFGRVFMKPGLPTTFATLDIDGVRKIIFALPGNPVSAVVTCNLFVVPALRKMQGILDPRPTIIKARLSCDVKLDPRPEYHRCILTWHHQEPLPWAQSTGNQMSSRLMSMRSANGLLMLPPKTEQYVELHKGEVVDVMVIGRL |
